Reference: paper PMC7817543
Results are given in words; binding and its absence hold for the method and conditions named. Binding seen in cells or lysates may run through a third protein. These calls come from enrichment with a bait or labelling near it, and not all partners need be listed.

Sequences of proteins named here, by UniProt entry; tags and fusion partners are left off.
UniProt P46937: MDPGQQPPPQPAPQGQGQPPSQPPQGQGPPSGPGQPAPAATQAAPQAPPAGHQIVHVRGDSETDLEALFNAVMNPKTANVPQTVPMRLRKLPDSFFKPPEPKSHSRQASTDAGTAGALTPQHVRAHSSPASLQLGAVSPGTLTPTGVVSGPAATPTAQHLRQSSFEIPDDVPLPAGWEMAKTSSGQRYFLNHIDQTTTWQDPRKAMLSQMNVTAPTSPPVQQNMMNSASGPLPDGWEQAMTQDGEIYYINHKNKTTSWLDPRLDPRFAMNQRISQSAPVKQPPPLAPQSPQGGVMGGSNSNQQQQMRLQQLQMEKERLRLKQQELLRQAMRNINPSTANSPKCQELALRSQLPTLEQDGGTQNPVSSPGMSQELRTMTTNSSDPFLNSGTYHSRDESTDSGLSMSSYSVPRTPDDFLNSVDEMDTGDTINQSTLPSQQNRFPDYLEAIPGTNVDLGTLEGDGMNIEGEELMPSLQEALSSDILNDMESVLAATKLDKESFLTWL

Target: Flag-YAP1 (UniProt P46937)
Test: affinity purification with mass spectrometry; 6×10^8 BGC823 cells stably expressing Flag-YAP1 or control vector; anti-Flag beads overnight at 4°C; elution with Flag peptides, SDS-PAGE, bands excised, in-gel trypsin digestion, mass spectrometry

- binding: binds
B1: nucleolar spindle-associated protein 1 (NUSAP1), endogenous (protein, UniProt Q9BXS6 1-441)
chain: MIIPSLEELDSLKYSDLQNLAKSLGLRANLRATKLLKALKGYIKHEARKGNENQDESQTSASSCDETEIQISNQEEAERQPLGHVTKTRRRCKTVRVDPDSQQNHSEIKISNPTEFQNHEKQESQDLRATAKVPSPPDEHQEAENAVSSGNRDSKVPSEGKKSLYTDESSKPGKNKRTAITTPNFKKLHEAHFKEMESIDQYIERKKKHFEEHNSMNELKQQPINKGGVRTPVPPRGRLSVASTPISQRRSQGRSCGPASQSTLGLKGSLKRSAISAAKTGVRFSAATKDNEHKRSLTKTPARKSAHVTVSGGTPKGEAVLGTHKLKTITGNSAAVITPFKLTTEATQTPVSNKKPVFDLKASLSRPLNYEPHKGKLKPWGQSKENNYLNQHVNRINFYKKTYKQPHLQTKEEQRKKREQERKEKKAKVLGMRRGLILAED
